# Laboratory results from paper PMC7862700.
# Some of the results follow. The source does not settle which construct or isoform was used.
# Target: T1, ELF2 (UniProt Q15723)
# T1 sequence: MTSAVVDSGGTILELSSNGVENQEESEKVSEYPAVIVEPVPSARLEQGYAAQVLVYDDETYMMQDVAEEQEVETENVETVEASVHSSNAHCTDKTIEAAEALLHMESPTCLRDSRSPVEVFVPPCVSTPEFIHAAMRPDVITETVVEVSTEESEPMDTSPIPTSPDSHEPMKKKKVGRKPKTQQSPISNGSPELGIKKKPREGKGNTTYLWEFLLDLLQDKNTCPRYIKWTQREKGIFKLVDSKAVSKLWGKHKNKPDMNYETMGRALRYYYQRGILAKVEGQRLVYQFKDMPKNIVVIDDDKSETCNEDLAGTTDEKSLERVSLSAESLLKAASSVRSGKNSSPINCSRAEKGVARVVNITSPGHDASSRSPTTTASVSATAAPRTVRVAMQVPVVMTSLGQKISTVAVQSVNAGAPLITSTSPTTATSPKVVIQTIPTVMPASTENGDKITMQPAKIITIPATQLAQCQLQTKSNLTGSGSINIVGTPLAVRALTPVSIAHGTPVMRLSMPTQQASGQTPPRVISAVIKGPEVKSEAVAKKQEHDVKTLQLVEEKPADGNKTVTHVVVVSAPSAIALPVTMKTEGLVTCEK
# Test: DAPPL (digital affinity profiling via proximity ligation, sequencing)
# Details: 10 mM Tris-HCl pH 7.5, 50 mM NaCl, 1 mM DTT, 4% glycerol, room temperature, 30 min; GST-TFs on glutathione beads, 16-mer random dsDNA library, 0.1% …; high values mean tight binding; double strand, one strand shown; scale: fold enrichment (6-mer frequency, TF over GST control)
row,Sequence,binding signal
1,CCCTTT,1.49
2,TCTCGG,1.33
3,TTTGCT,1.21
4,TTGAAT,1.04
5,TCACGA,1.03
6,AATAGA,1.11
7,AAACCC,1.34
8,AACAAT,1.3
9,GAAGCA,1.49
10,CTGCAA,1.19
11,AATCCC,1.3
12,GCGACT,1.16
13,AAGTTT,1.5
14,ATGTAC,1.28
15,ATCTGT,1.2
16,TGTAAA,1.12
17,TATTCA,1.23
18,CGCTTC,2.63
19,ATACTG,1.11
20,GCCTCA,1.17

row,Sequence,binding signal
1,TCTTTG,1.09
2,AAATTT,1.34
3,CTTCTG,1.32
4,GTTTTC,1.23
5,TACGTA,1.29
6,GCTCAA,1.02
7,ATGGGT,1.26
8,ATGGCT,1.26
9,CCTCTC,1.34
10,AAAAGT,1.02
11,ATACCA,1.02
12,GAATAC,1.04
13,TAACAA,1.2
14,AACCTT,1.22
15,CTCATG,1.15
16,ATCGCC,1.22
17,TCCTTT,1.74
18,CTTGAT,1.33
19,TTAACT,1.2
20,TGTAAT,1.19

# Retrieved one by one from the list above:
row,Sequence,binding signal
19,TTAACT,1.2
10,CTGCAA,1.19
